Primary screen of a compound library

Measurements from “University of Dundee, Small-Polar-MMV Screening Library” (2021), ChEMBL document CHEMBL3988442.

A: 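Whole-cell assay for inhibitors of Mycobacterium tuberculosis growth, labelled Cornell in the record; the read-out is not stated. The concentration is filed as 10 mM, unlikely as a test dose, so the dose is not known. Higher means stronger inhibition (inferred from two other growth screens of the library). Size under these conditions: about 53,000 compounds, about 900 of them at 50% or above in at least one test.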
B: 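Assay on Mycobacterium tuberculosis, filed only as a heat shock assay from Cornell; the read-out is not stated. The concentration is filed as 10 mM, unlikely as a test dose, so the dose is not known. Direction is inferred from retests: higher values go with stronger inhibition. Size under these conditions: about 69,000 compounds, about 930 of them at 50% or above in at least one test.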

Results are given as percent effect. The controls that fix the scale are not given in the record; negative values are as filed. The compounds are a random part of those screened. A dash means the value is not listed here; it may have been measured.

| Compound | A | B |
|---|---|---|
| `CNC(=O)C1Cc2ccccc2CN1C(=O)CC(C)C` (stereo not given) | 6.826 | -10.75 |
| `Cc1cc(-c2cncnc2)ccc1OCC(N)=O` | - | -14.01 |
| `Cc1cc(F)ccc1S(=O)(=O)N(C)CC(N)=O` | -36.5 | -2.066 |
| `Cc1nc(C)n(CC2CCCN2CCOc2cccc(F)c2)n1` (stereo not given) | - | -8.749 |
| `CS(=O)(=O)c1ccc(NC(=O)NCCC2=CCCCC2)cc1` | 26.85 | 4.467 |
| `CCOc1ncccc1CNC(=O)N1CCC(n2cncn2)CC1` | -1.846 | -6.371 |
| `Cn1cc(N2CC3(CCN(C(=O)c4cccn4C)CC3)OCC2=O)cn1` | -19.47 | -8.21 |
| `O=C(NCC1CC1)c1n[nH]c2c1CNCC2.O=C(O)C(F)(F)F.O=C(O)C(F)(F)F` | - | 3.492 |
| `O=C(O)C(F)(F)F.O=C(O)C(F)(F)F.O=C(O)C(F)(F)F.[H][C@@]12C[C@@H](Oc3cncnc3)CN1CCN(Cc1ccncc1)C2` | 3.733 | 11.96 |
| `Cc1cc(NS(=O)(=O)c2ccccc2F)ccc1-n1cccc1C(=O)O` | 63.88 | 15.94 |
| `CC(C)n1ccc(C(=O)NCC(O)c2c(Cl)cccc2Cl)n1` (stereo not given) | -5.011 | -2.645 |
| `[H][C@@]12CCN(C(=O)c3ccoc3)C[C@@]1([H])O[C@H](c1nnc(C3CC3)o1)C2` | -5.065 | 19.79 |
| `Cc1cc2n(n1)CC(CNC1CCN(c3ccc(F)cc3)CC1)CN2` (stereo not given) | 18.45 | 1.626 |
| `CCCn1ccnc1CN1C[C@@H](CN2CCCCC2)[C@@H](CO)C1` | -16.6 | 6.635 |
| `CC(C)(C)n1cc(CNC2CCN(C(=O)c3ccoc3)CC2)cn1.Cl` | 20.47 | -27.74 |
| `Cc1ccc(F)c(OC2(C(=O)O)CCN(C(=O)N3CCCC3)CC2)c1` | -10.1 | 5.167 |
| `Cc1nc(-c2cnn(C)c2)nc2c1CN(C(=O)c1cccnc1)CC2` | 10.3 | -23.42 |
| `NCC1(c2cccc(F)c2)CCOCC1` | - | -20.41 |
| `Cc1nc(CNC(=O)N(C)Cc2cnn(C)c2)cs1` | - | 15.48 |
| `CCN1CCC(CNC(=O)C(c2ccccc2F)N(C)C)(N(C)C)CC1` (stereo not given) | 4.649 | -8.378 |
| `COc1ncccc1CN1CCC2(CCCN2S(C)(=O)=O)CC1.O=C(O)C(F)(F)F.O=C(O)C(F)(F)F` | -3.025 | -27.19 |
| `CC(C)Cn1cc(NC(=O)NC(C)(C)c2nccs2)cn1` | -30.97 | -29.4 |
| `COc1ccc(C(=O)N2C[C@@H](O)[C@H](NCCc3ncccc3C)C2)cc1` | -65.24 | 27.27 |
| `Cc1noc(C(C)N2CCN(CCOCC(F)(F)F)CC2)n1` (stereo not given) | - | -17.64 |
| `Cn1cccc1C(=O)N1CC2(CCN(C(=O)c3cccnc3)C2)C1.O=C(O)C(F)(F)F` | -3.792 | 36.97 |
| `CC(=O)N1CCCC(c2nc(-c3ccccc3)c[nH]2)C1` (stereo not given) | -19.93 | -19.8 |
| `O[C@H]1Cc2ccccc2[C@H]1n1ccnc1-c1cc2n(n1)CCNC2` | 4.615 | 5.739 |
| `Cc1ncc(CN2CCOC(CN(C)c3cccnn3)C2)s1` (stereo not given) | -26.99 | 9.013 |
| `CC(=O)NCCNC(=O)CN1CCCC1Cn1nc(C)nc1C` (stereo not given) | -5.877 | -7.766 |
| `CN1C[C@@H](F)[C@@H](OCc2nc3ccc(C#N)cc3[nH]2)C1` | - | -20.46 |
| `O=C(O)C(F)(F)F.c1csc(CN2CCCn3cnc(COCC4CC4)c3C2)c1` | 11.43 | 9.625 |
| `Cc1ccc(C)c(-n2ccc3nc(N4CCCC4)ncc3c2=O)c1` | - | 0.09704 |
| `CCN(Cc1ccc2c(c1)OCO2)S(=O)(=O)N(C)C(C)C` | - | 1.804 |
| `Cc1nc(CNC(=O)c2cc(COc3cccc(F)c3)[nH]n2)n[nH]1` | - | -15.85 |
| `O=C(Cc1cccnc1)N1CCC2(CC1)CCN(C1CCOCC1)C2.O=C(O)C(F)(F)F.O=C(O)C(F)(F)F` | 5.169 | -45.87 |
| `O=C(CCc1cccs1)N1CCc2[nH]nc(COc3ccccc3)c2C1` | -31.91 | 12.9 |
| `CCN(CC)C(=O)CN1CCCC1c1nc(C)c2c(n1)N(C)C(=O)CC2` (stereo not given) | 18.51 | 3.451 |
| `Cc1ccsc1C(=O)N1CCc2ncc(CN(C)C)n2CC1.O=C(O)C(F)(F)F` | -8.179 | 4.29 |
| `CC(=O)Nc1ccc(-n2ccc3nc(N4CCCC4)ncc3c2=O)cc1` | - | -12.28 |
| `CC(=O)N1CCCC1c1nc(C)cc(-c2ccc(F)cc2)n1` (stereo not given) | 8.754 | -3.33 |
| `CC(C)NC(=O)[C@@H]1CN(C)C[C@]12COc1ccc(F)cc1C2=O` | -4.262 | -0.532 |
| `CN(CCOc1ccc(F)cc1)S(=O)(=O)c1cnn(C)c1` | -20.85 | 12.74 |
| `COc1nn(C)c2c1CCCN(C(=O)c1c[nH]cn1)C2` | -9.689 | -8.402 |
| `Cc1nc(O)cc(C2CCN(C(=O)c3ccsc3)CC2)n1` | -57.62 | -3.23 |
| `NC(=O)c1cnc(NC2CCN(C(=O)C3CC3)CC2)c(Cl)c1` | -2.901 | 18.87 |
| `NC(=O)c1c(NC(=O)C2CCCO2)sc2c1CCc1ccccc1-2` (stereo not given) | -100.5 | 3.981 |
| `CC1=Nc2c(c(=O)[nH]n2C(C)C)C(c2cccc(OC(F)F)c2)S1` (stereo not given) | 23.35 | 14.07 |
| `Cc1nc(C(=O)N2CCCC2c2cncc(CN3CCCC3)n2)co1` (stereo not given) | -35.83 | 6.6 |
| `[H][C@@]12COCC[C@]1([H])C[C@H](N(CC(=O)O)C(=O)c1ccccc1)C2` | -4.315 | -4.36 |
| `CC(C)c1csc(C2CCCN(C(=O)c3ccc(=O)n(C)n3)C2)n1` (stereo not given) | -5.793 | -9.113 |
| `CCN(CC)c1ccc(CNC(=O)c2cnccn2)cn1` | -29.24 | -20.25 |
| `CCO[C@H]1CO[C@@]2(CCCN(Cc3nc(C)cs3)C2)C1.O=C(O)C(F)(F)F` | -1.064 | -39.86 |
| `Cn1cc(C2CC(=O)NC23CCN(CC2CC2)CC3)cn1.O=C(O)C(F)(F)F` (stereo not given) | 9.343 | 9.814 |
| `Cc1nc(CNCC2CCCN(C(=O)OC(C)(C)C)C2)cs1` (stereo not given) | 31.63 | -3.652 |
| `O=C(NCc1cc(Br)cs1)Nc1cn[nH]c1` | 2.757 | -14.55 |
| `CCN(CC)C(=O)[C@@H]1C[C@H](NC(=O)c2ccn(C(C)(C)C)c2)CN1C` | 9.333 | -16.11 |
| `Cn1ncnc1CNC1CCCc2cc(F)ccc21` (stereo not given) | 17.63 | -24.7 |
| `CCOc1ncccc1NC(=O)NC1CCN(C(C)=O)CC1` | - | -21.83 |
| `CCc1cc(NCC(O)CN2CCCC2)ncn1` (stereo not given) | 1.299 | -14.13 |
| `CN(CC1CC1)C(=O)Cc1csc(-c2ncccn2)n1` | - | -15.43 |
| `CC(C)c1nc(C2CCCN(C(=O)CCCn3ccnc3)C2)no1` (stereo not given) | 2.644 | 1.421 |
| `CC(C)(C)CN(CCC#N)C(=O)Cc1ccc(-n2cnnn2)cc1` | -6.181 | -2.679 |
| `CC(C)NC(=O)N1CCCC(c2nnc(CN3CCOCC3)n2C)C1` (stereo not given) | - | -21.18 |
| `CCn1c(CC2CCN(C(=O)C3CNCCO3)CC2)nn(C)c1=O` (stereo not given) | 11.08 | -13.51 |
| `COCCNC(=O)Cn1c(-c2ccco2)cc2cccnc21` | 49.86 | -10.35 |
| `O=C1N(Cc2ccc(F)c(F)c2)CCCC1(O)CNCc1cccnc1` (stereo not given) | -3.107 | -6.911 |
| `CC(C)=CCCC1(C)C=Cc2c(cc(C)n(CC(=O)O)c2=O)O1` (stereo not given) | 26.31 | 15.2 |
| `CC(O)c1cccc(Nc2nc(NCCO)c3ccccc3n2)c1` (stereo not given) | -13.85 | 10.04 |
| `OC1(CNCc2ccc(F)c(C(F)(F)F)c2)CCSCC1` | 9.271 | -6.459 |
| `Cc1occc1C(=O)NCC(=O)NCCOc1ccc2c(c1)CCC2` | -54.05 | 50.55 |
| `O=C1CN(C(=O)C2CN(c3ccccc3)CCO2)CCN1` (stereo not given) | 14.68 | -11.22 |
| `CCCc1noc(CCCC(=O)N2CCCC(n3ccnc3C)C2)n1` (stereo not given) | - | 11.4 |